The list shows a part of the results. Only hits are listed; about a third recur on repeated control peptides.

The chains behind the UniProt entries cited, without tags or fusion partners.
KPNA1, P52294, UniProt P52294, whole entry: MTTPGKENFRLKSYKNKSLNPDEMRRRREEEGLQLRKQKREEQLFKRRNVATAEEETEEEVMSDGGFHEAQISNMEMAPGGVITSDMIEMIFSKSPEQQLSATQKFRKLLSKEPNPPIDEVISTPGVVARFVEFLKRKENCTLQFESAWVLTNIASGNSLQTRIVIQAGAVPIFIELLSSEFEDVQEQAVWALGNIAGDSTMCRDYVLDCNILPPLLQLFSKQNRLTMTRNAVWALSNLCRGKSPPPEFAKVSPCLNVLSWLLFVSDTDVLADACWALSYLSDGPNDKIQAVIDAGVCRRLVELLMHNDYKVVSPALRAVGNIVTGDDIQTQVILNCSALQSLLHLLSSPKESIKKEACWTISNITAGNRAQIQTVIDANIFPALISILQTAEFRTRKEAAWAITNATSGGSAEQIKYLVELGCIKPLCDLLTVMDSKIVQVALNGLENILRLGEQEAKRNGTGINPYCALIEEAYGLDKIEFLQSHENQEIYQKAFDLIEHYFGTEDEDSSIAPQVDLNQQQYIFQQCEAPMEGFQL
NDUFV1, P49821, UniProt P49821, whole entry: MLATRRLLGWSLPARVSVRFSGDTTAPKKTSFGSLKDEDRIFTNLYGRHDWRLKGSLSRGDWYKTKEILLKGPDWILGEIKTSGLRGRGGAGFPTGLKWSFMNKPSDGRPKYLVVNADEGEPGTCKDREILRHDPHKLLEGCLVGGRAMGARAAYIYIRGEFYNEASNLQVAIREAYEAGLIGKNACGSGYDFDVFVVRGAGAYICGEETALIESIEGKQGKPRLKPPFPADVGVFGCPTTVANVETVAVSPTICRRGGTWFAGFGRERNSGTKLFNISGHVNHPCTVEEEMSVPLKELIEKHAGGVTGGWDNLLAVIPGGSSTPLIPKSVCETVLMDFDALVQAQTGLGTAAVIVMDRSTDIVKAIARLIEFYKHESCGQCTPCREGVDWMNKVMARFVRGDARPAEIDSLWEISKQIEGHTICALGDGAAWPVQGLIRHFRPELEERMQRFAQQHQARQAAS
PSMD14, O00487, UniProt O00487, whole entry: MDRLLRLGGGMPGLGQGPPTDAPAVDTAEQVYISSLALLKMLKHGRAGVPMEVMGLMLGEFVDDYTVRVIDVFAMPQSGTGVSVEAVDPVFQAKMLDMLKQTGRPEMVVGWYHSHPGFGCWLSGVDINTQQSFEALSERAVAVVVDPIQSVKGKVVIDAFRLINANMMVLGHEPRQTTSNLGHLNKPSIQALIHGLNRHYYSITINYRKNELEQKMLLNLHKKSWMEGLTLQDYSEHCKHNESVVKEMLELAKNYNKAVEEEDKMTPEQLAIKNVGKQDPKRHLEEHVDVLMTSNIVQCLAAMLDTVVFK
SERPINA1, P01009, UniProt P01009, whole entry: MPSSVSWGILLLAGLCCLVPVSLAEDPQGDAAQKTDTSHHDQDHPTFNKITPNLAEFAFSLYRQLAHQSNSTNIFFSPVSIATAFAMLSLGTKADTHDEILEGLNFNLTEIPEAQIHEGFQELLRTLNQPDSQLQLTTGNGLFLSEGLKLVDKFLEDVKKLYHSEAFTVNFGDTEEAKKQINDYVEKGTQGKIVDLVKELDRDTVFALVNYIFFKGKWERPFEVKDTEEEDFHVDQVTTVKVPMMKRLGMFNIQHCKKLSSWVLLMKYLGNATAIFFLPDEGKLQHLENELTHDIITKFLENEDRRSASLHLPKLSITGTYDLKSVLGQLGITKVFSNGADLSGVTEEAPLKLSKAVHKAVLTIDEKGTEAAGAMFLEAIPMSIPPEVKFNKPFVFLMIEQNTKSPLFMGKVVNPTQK
CD2AP, Q9Y5K6, UniProt Q9Y5K6, whole entry: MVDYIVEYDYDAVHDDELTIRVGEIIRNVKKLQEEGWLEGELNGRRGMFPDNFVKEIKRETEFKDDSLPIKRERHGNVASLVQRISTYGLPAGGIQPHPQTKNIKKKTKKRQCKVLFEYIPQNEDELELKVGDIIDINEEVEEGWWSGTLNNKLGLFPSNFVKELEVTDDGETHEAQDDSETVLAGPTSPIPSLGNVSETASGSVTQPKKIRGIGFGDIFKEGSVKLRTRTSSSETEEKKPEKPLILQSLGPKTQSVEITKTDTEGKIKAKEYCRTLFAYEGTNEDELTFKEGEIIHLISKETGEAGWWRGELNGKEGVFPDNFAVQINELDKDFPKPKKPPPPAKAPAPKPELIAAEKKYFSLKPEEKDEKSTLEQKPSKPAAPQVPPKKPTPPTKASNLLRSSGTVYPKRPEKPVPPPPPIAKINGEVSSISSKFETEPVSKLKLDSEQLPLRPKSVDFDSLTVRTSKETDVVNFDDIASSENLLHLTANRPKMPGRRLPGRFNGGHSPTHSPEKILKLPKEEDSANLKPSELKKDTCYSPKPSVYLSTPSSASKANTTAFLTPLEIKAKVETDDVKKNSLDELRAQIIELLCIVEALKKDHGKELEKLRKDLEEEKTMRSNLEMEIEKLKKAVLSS

Holding throughout (experiment): PRISMA enrichment of interactor (LFQ) in peptide spot vs all other peptide spots (log2 fold change); higher = stronger / more specific binding of the interactor to the peptide
One test concerns the target AK4, P27144. The protocol: (§1)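 PRISMA: 15-aa overlapping tiles (offset 8 aa) of 60 microproteins, plus SOS1/GLUT1 control peptides, were spot-synthesized on cellulose membranes in triplicate. Membranes were incubated with benzonase-treated HEK293T lysate, and bound proteins were identified by LC-MS/MS with LFQ. Enrichment is the log2 fold change of each protein in one spot versus all other spots. Only interactors passing the significance cutoff are listed.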

Another test concerns the target ARF5, P84085. The protocol: as §1
Another test has as its target ARMC6, Q6NXE6. The protocol:
as §1

The target of the next test is CDC40, O60508. The protocol: as §1
A further test addresses CHTOP, Q9Y3Y2. As to the method: as §1
For another test, the target named is DDX49, Q9Y6V7. The protocol: as §1
In the next test the target is DLGAP5, Q15398. As to the method: as §1
The target of another test is ETFA, P13804. As to the method: as §1
The next test concerns the target GNPDA1, P46926. The protocol: as §1
The target of a further test is KPNA1, P52294. As to the method:
as §1

The target in the next test is LETMD1, Q6P1Q0. As to the method: as §1
The next test deals with MRPS5, P82675. The protocol:
as §1

The target of another test is MUC19, Q7Z5P9. The protocol:
as §1

The target in another test is NDUFV1, P49821. As to the method:
as §1

The next test has as its target NNT, Q13423. The protocol: as §1
A further test has as its target PAWR, Q96IZ0. As to the method:
as §1

For a further test, the target named is PICALM, Q13492. The protocol: as §1
In a further test the target is PSMD14, O00487. The protocol:
as §1

For a further test, the target named is RPL39P5, Q59GN2. The protocol: as §1
The target of a further test is SERPINA1, P01009. As to the method: as §1
The target in another test is SUPT6H, Q7KZ85. As to the method:
as §1

The next test addresses TOP1, P11387. As to the method:
as §1

The next test concerns the target UCK2, Q9BZX2. The protocol: as §1
Another test addresses VWA8, A3KMH1. As to the method: as §1
A further test addresses CD2AP, Q9Y5K6. As to the method: as §1
The target of the next test is COG4, Q9H9E3. The protocol:
as §1

The next test concerns the target DDX46, Q7L014. The protocol:
as §1

A further test deals with DNAJC7, Q99615. The protocol: as §1
The next test has as its target GRB10, Q13322. As to the method: as §1
The target in a further test is HLA-B. As to the method: as §1
In another test the target is HLTF, Q14527. As to the method:
as §1

The target of a further test is HOXB6, P17509. The protocol: as §1
The next test concerns the target OPA1, O60313. The protocol:
as §1

In the next test the target is PRRC2A, P48634. The protocol:
as §1

For a further test, the target named is SPTY2D1, Q68D10. As to the method:
as §1

The target of the next test is TIAL1, Q01085. The protocol:
as §1

A further test deals with UFD1, Q92890. As to the method: as §1
In the next test the target is ZBTB11, O95625. The protocol: as §1

For the molecule WLGTPPLLREMSMDS [NAV2-AS2], the “PRISMA enrichment of interactor (log2)” value with AK4, P27144 stood at 8.1; in the test with ARF5, P84085 it was 4.22; with ARMC6, Q6NXE6 it was 5.21; with CDC40, O60508, 3.99; with CHTOP, Q9Y3Y2 it was 5.37; with DDX49, Q9Y6V7, 5.22. Moreover, the “PRISMA enrichment of interactor (log2)” value came to 5.18 with DLGAP5, Q15398; 5.64 with ETFA, P13804; 5.68 with GNPDA1, P46926; 5.13 with KPNA1, P52294; 3.98 in the test with LETMD1, Q6P1Q0; 6.98 with MRPS5, P82675. In addition, the “PRISMA enrichment of interactor (log2)” value was found to be 8.28 in the test with MUC19, Q7Z5P9; 4.8 with NDUFV1, P49821; 4.04 with NNT, Q13423; 4.53 with PAWR, Q96IZ0; 10.2 with PICALM, Q13492; 4.26 with PSMD14, O00487. The “PRISMA enrichment of interactor (log2)” value with RPL39P5, Q59GN2 stood at 4.87; in the test with SERPINA1, P01009, 4.26; with SUPT6H, Q7KZ85 it was 5.63; in the test with TOP1, P11387, 6.89; with UCK2, Q9BZX2, 5.52; with VWA8, A3KMH1, 3.94.
For WPHCEERQKPAVAAG [RP11-644F5.11], the “PRISMA enrichment of interactor (log2)” value in the test with AK4, P27144 was found to be 10.7; in the test with CD2AP, Q9Y5K6, 5.69; with COG4, Q9H9E3 it was 5.22; with DDX46, Q7L014, 4.54; with DNAJC7, Q99615 it was 5.37; with GRB10, Q13322 it was 4.97. Moreover, the “PRISMA enrichment of interactor (log2)” value with HLA-B was determined as 4.75; with HLTF, Q14527, 6.71; in the test with HOXB6, P17509, 3.74; in the test with OPA1, O60313, 5.06; in the test with PRRC2A, P48634, 6.03; in the test with SPTY2D1, Q68D10 it was 5.68. Also, the “PRISMA enrichment of interactor (log2)” value stood at 6.01 with TIAL1, Q01085; 4.56 with UFD1, Q92890; 4.61 with ZBTB11, O95625.

Source of the values: the supplement of paper PMC10032668.
